# According to the supplement of paper PMC10849652:
# Amino acid sequences for entries named in this document (tags omitted). A change or cut given only in a name is not applied to a line headed by its entry.
# UniProt P55058, whole entry, looked up: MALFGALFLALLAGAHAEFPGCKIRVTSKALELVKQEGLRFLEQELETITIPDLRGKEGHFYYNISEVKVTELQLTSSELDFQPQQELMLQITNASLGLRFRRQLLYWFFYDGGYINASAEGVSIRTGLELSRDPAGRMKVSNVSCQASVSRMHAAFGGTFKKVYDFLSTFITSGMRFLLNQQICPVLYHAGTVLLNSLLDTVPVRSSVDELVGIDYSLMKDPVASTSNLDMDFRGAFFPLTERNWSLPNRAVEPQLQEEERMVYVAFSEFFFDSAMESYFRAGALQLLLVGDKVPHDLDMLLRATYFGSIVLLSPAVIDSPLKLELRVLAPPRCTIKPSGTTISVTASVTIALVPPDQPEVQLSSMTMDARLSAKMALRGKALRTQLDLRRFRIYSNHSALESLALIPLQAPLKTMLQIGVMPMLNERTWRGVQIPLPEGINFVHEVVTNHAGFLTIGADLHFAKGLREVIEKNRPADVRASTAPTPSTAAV
# UniProt Q8WVV4: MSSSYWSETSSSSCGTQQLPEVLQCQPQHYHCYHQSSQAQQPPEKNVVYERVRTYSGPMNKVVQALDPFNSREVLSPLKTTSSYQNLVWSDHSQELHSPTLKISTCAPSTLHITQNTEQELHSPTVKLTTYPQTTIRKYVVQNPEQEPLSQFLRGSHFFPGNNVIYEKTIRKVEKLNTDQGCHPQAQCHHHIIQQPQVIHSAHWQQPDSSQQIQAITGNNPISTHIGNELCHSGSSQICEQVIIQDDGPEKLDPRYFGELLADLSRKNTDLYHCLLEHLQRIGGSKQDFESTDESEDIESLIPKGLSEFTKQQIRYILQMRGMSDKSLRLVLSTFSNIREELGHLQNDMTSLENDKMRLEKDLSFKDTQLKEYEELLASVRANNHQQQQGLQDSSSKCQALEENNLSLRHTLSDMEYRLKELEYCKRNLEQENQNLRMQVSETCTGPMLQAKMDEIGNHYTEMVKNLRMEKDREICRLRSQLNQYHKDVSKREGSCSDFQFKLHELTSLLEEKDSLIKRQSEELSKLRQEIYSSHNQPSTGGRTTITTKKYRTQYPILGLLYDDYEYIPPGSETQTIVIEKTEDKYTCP
# UniProt Q92871: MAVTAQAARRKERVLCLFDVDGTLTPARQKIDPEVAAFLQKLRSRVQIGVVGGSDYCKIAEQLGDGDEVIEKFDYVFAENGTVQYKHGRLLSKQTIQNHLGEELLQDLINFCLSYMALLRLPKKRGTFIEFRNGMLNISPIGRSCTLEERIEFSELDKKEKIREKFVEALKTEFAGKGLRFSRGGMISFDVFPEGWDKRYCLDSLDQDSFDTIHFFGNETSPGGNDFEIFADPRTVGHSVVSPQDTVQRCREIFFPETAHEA
# UniProt Q15063: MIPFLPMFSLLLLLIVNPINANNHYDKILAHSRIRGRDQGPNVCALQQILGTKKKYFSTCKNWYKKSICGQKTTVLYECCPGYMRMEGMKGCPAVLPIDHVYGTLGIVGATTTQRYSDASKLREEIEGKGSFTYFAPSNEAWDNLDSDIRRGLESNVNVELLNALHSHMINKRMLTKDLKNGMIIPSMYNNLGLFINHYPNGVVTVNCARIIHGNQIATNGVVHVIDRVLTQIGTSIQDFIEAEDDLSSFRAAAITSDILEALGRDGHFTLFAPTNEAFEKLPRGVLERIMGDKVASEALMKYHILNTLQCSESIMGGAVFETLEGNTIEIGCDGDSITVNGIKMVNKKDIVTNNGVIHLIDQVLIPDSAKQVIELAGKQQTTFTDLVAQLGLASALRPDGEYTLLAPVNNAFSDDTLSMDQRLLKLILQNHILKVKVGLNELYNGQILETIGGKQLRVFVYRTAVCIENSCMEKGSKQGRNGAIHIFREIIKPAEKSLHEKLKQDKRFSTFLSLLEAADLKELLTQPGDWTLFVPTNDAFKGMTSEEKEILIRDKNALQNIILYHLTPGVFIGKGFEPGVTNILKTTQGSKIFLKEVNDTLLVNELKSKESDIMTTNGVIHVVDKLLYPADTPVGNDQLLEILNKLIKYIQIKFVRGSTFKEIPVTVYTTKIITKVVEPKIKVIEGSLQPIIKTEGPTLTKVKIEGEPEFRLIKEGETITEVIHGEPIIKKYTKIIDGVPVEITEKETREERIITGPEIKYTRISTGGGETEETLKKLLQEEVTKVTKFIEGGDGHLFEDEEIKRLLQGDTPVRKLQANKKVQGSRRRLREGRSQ
# UniProt P54277: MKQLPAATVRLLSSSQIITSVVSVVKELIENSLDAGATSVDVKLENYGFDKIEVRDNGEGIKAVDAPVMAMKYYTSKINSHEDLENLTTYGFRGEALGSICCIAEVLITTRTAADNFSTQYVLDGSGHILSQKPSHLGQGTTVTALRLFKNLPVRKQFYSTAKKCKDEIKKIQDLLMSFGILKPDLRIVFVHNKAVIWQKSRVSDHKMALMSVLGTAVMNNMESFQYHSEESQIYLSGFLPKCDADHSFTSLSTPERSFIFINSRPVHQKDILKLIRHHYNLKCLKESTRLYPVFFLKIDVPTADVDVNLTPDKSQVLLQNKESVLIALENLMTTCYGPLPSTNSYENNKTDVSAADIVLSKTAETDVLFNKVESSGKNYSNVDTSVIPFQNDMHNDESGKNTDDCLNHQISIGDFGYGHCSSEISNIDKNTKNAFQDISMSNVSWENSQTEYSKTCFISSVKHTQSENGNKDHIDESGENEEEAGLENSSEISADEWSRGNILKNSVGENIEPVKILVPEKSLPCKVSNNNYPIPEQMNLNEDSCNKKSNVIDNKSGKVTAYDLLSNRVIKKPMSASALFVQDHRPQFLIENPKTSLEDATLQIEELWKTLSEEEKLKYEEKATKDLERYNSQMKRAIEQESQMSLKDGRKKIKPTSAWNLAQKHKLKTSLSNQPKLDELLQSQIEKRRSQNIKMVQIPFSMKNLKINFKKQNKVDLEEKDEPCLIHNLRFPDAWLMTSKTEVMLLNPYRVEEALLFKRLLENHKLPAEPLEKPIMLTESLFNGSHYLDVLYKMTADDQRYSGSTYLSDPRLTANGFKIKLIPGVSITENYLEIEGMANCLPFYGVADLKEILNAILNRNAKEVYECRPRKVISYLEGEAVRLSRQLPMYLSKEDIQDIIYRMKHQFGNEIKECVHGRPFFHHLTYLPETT
# UniProt Q8IY26: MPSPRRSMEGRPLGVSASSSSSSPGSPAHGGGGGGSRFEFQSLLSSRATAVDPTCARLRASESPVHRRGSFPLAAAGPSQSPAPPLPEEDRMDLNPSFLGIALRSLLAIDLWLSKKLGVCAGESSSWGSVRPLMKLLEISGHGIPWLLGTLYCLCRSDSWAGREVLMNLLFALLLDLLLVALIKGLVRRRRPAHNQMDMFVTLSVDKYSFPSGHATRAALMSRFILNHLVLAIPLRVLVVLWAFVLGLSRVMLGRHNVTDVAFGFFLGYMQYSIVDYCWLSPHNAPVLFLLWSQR
# UniProt Q8NBT0: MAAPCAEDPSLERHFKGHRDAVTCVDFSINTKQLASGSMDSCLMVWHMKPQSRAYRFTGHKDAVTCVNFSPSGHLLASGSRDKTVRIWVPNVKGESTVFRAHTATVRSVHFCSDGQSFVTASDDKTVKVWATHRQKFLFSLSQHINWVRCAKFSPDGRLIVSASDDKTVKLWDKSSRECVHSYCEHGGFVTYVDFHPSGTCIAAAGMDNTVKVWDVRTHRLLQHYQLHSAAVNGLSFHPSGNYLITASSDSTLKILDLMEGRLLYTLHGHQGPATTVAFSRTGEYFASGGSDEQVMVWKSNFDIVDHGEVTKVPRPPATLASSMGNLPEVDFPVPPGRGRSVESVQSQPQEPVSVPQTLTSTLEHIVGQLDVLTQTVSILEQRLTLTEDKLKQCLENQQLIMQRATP
# UniProt P29590: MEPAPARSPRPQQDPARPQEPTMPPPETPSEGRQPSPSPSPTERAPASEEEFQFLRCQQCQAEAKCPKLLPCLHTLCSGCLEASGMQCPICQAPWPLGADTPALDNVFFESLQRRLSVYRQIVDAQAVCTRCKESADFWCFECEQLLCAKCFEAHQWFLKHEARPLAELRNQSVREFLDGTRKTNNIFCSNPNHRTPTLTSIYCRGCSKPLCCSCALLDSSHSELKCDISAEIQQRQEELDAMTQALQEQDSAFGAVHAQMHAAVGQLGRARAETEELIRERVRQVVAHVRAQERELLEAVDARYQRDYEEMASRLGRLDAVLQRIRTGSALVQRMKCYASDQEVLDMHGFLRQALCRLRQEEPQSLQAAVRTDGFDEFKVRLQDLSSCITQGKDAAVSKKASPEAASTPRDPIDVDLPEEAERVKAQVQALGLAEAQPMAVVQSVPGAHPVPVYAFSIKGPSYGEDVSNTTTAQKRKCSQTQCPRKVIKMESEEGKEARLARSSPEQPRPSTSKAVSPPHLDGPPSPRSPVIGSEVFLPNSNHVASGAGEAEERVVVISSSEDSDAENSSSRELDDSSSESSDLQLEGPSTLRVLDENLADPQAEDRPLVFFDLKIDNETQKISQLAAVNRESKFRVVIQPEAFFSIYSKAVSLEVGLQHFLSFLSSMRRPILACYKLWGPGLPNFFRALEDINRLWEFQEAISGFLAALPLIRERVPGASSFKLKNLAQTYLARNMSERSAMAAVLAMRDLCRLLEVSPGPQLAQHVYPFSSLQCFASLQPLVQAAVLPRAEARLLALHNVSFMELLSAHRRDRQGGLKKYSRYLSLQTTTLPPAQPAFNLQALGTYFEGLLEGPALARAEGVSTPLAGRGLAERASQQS
# UniProt P45877: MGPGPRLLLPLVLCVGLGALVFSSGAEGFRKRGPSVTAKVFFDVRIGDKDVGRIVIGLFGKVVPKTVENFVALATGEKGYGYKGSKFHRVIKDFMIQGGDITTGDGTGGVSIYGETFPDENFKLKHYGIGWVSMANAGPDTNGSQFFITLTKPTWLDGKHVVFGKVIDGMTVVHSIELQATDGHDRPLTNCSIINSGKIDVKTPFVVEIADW
# UniProt Q58EX7: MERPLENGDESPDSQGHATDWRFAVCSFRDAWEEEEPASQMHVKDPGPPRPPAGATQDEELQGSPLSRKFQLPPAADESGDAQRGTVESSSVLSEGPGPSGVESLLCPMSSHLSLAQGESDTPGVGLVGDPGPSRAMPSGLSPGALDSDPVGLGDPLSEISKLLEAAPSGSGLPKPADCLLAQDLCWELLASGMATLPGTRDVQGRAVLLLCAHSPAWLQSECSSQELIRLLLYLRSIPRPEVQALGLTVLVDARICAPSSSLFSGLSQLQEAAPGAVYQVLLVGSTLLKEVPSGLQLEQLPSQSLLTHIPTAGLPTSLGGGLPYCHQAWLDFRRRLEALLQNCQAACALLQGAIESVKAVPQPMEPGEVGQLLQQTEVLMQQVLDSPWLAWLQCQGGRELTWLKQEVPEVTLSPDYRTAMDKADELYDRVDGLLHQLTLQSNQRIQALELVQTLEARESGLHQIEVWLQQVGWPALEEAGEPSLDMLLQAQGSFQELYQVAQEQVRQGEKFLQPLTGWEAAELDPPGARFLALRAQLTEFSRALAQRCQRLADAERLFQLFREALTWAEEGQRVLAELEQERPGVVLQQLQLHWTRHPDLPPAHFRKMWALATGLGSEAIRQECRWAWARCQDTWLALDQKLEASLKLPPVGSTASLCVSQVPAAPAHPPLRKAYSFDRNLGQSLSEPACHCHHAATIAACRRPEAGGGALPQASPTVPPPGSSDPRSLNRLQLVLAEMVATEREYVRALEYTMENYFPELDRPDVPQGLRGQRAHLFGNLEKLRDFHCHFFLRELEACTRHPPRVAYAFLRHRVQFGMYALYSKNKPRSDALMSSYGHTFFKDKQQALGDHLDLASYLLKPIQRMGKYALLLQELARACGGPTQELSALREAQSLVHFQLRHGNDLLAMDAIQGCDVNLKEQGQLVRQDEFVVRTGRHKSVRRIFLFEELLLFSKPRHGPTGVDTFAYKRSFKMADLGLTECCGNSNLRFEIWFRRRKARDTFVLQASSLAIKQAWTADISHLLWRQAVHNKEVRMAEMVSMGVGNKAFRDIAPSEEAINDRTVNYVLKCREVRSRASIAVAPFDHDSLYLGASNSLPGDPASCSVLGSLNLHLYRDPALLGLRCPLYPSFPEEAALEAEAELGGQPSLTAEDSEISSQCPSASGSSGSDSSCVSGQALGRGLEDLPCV
# UniProt Q9H5K3: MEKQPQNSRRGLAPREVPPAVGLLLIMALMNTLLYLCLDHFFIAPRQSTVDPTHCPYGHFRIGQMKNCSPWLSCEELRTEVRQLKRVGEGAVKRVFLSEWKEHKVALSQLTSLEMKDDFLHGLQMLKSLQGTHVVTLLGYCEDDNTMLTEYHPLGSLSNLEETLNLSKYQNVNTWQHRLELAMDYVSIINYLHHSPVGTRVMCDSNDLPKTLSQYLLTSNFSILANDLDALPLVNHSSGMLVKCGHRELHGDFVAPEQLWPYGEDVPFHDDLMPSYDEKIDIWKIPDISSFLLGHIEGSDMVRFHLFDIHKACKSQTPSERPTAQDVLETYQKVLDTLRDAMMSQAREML
# UniProt Q9NW61: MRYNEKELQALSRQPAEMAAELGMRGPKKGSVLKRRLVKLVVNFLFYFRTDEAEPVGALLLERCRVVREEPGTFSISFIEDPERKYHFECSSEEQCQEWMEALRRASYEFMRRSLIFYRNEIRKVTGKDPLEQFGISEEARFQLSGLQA
# This is one part of the list.
# Compound: CCn1cc(-c2ccnc3[nH]c(-c4cccc(CN(C)C)c4)cc23)c(-c2ccc(NC(=O)N(C)C)cc2)n1
# Test: log2 fold change, soluble protein after heating vs DMSO (PISA); higher = thermal stabilisation; K562 lysate, 10 uM; active = over 0.2 and 3.5 SD of the protein, either way, in both replicates (recomputed)
# How it was run: (§1)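 Following dounce homogenisation of K562 pellets in PBS pH 7.4 with 1 mM MgCl2, crude extract at 1 mg/mL protein was incubated for 30 min with 10 μM compound. Aliquots were then heated for 3 min over 48°C-58°C and pooled, NP-40 was added to 0.5% at 4°C, and soluble protein was recovered as the supernatant at 21,000xg for 90 min. Channel-sum-equalised TMTpro 16plex LC-MS/MS quantified this protein. Each value, from duplicates, is a log-two fold change in thermal stability relative to solvent controls.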
row,Target,log2 fold change
1,PLTP (UniProt P55058),inactive: 0.317
2,POLR2K (UniProt P53803),inactive: -0.049
3,PODXL (UniProt O00592),inactive: -0.016
4,POF1B isoform 1 (UniProt Q8WVV4),inactive: 0.313
5,PMM1 (UniProt Q92871),inactive: -0.051
6,POSTN (UniProt Q15063),inactive: 0.073
7,PMS1 (UniProt P54277),inactive: -0.01
8,PLPP6 (UniProt Q8IY26),inactive: 0.011
9,PNPLA4 (UniProt P41247),inactive: 0.165
10,POC1A (UniProt Q8NBT0),inactive: 0.177
11,PML isoform 11 (UniProt P29590),inactive: -0.083
12,PPIC (UniProt P45877),inactive: -0.112
13,PLEKHG4 (UniProt Q58EX7),inactive: 0.052
14,POMK (UniProt Q9H5K3),inactive: 0.037
15,PPFIBP2 (UniProt Q8ND30),inactive: 0.051
16,POM121C (UniProt A8CG34),inactive: 0.146
17,PLEKHJ1 (UniProt Q9NW61),inactive: -0.132

# Compound: CN1CCC(CNc2ccc3ncc(-c4cccc(OC(F)(F)F)c4)n3n2)CC1
# Test: as above
# How it was run: as §1
row,Target,log2 fold change
1,PLTP (UniProt P55058),inactive: -0.176
2,POLR2K (UniProt P53803),inactive: 0.08
3,PODXL (UniProt O00592),inactive: 0.015
4,POF1B isoform 1 (UniProt Q8WVV4),inactive: -0.172
5,PMM1 (UniProt Q92871),inactive: 0.077
6,POSTN (UniProt Q15063),inactive: -0.046
7,PMS1 (UniProt P54277),inactive: -0.051
8,PLPP6 (UniProt Q8IY26),inactive: -0.071
9,PNPLA4 (UniProt P41247),inactive: 0.414
10,POC1A (UniProt Q8NBT0),inactive: 0.263
11,PML isoform 11 (UniProt P29590),inactive: -0.095
12,PPIC (UniProt P45877),inactive: 0.124
13,PLEKHG4 (UniProt Q58EX7),inactive: 0.019
14,POMK (UniProt Q9H5K3),inactive: -0.083
15,PPFIBP2 (UniProt Q8ND30),inactive: 0.068
16,POM121C (UniProt A8CG34),inactive: 0.158
17,PLEKHJ1 (UniProt Q9NW61),inactive: -0.04

# Compound: CN1CCN(CCOc2cc(OC3CCOCC3)c3c(Nc4c(Cl)ccc5c4OCO5)ncnc3c2)CC1 [saracatinib]
# Test: as above
# How it was run: as §1
row,Target,log2 fold change
1,PLXNB1 (UniProt O43157),inactive: -0.055
2,POTEKP (UniProt Q9BYX7),inactive: 0.049
3,PLTP (UniProt P55058),inactive: 0.073
4,POLR2K (UniProt P53803),inactive: 0.008
5,POMT1 (UniProt Q9Y6A1),inactive: 0.15
6,POC1B (UniProt Q8TC44),inactive: 0.144
7,POF1B isoform 1 (UniProt Q8WVV4),inactive: -0.021
8,PMM1 (UniProt Q92871),inactive: 0.066
9,PMS1 (UniProt P54277),inactive: 0.016
10,PLXND1 (UniProt Q9Y4D7),inactive: 0.018
11,PLPP6 (UniProt Q8IY26),inactive: 0.07
12,PNPLA4 (UniProt P41247),inactive: 0.009
13,PML isoform 11 (UniProt P29590),inactive: -0.088
14,POLR2J (UniProt P52435),inactive: 0.002
15,PPIC (UniProt P45877),inactive: -0.004
16,PLEKHG4 (UniProt Q58EX7),inactive: 0.024
17,PLOD2 isoform 2 (UniProt O00469),inactive: 0.273
18,POMK (UniProt Q9H5K3),inactive: -0.004
19,PLPPR3 isoform 3 (UniProt Q6T4P5),inactive: 0.003
20,PLGRKT (UniProt Q9HBL7),inactive: -0.054
21,POLR2F (UniProt U3KPV3),inactive: -0.051
22,PNMA8A (UniProt Q86V59),inactive: 0.004

# Compound: CN1CCN(c2nc(C3=C(c4c[nH]c5ccccc45)C(=O)NC3=O)c3ccccc3n2)CC1 [sotrastaurin]
# Test: as above
# How it was run: as §1
row,Target,log2 fold change
1,PLXNB1 (UniProt O43157),inactive: -0.014
2,POTEKP (UniProt Q9BYX7),inactive: -0.171
3,PPFIBP1 (UniProt Q86W92),inactive: 0.033
4,POLR2K (UniProt P53803),inactive: 0.037
5,PLEKHM1 (UniProt Q9Y4G2),inactive: 0.011
6,PMM1 (UniProt Q92871),inactive: 0
7,POSTN (UniProt Q15063),inactive: -0.042
8,POLI (UniProt Q9UNA4),inactive: 0.183
9,PMS1 (UniProt P54277),inactive: -0.002
10,PLXND1 (UniProt Q9Y4D7),inactive: 0.012
11,PLPP6 (UniProt Q8IY26),inactive: 0.003
12,PMS2CL (UniProt Q68D20),inactive: -0.008
13,PNPLA4 (UniProt P41247),inactive: -0.013
14,POC1A (UniProt Q8NBT0),inactive: 0.122
15,POLR2J (UniProt P52435),inactive: -0.02
16,PPIC (UniProt P45877),active: -0.453
17,PLEKHG4 (UniProt Q58EX7),inactive: 0.036
18,PNMT (UniProt P11086),inactive: -0.028
19,POMK (UniProt Q9H5K3),inactive: 0.076
20,PLGRKT (UniProt Q9HBL7),inactive: 0.212
21,PLEKHJ1 (UniProt Q9NW61),inactive: 0.027
